# Test results reported in PubChem BioAssay AID720551 (National Center for Advancing Translational Sciences (NCATS), 2013).
# Protein sequences, listed by entry. Tags and fused reporters are not part of them.
# UniProt Q12809, whole entry, looked up: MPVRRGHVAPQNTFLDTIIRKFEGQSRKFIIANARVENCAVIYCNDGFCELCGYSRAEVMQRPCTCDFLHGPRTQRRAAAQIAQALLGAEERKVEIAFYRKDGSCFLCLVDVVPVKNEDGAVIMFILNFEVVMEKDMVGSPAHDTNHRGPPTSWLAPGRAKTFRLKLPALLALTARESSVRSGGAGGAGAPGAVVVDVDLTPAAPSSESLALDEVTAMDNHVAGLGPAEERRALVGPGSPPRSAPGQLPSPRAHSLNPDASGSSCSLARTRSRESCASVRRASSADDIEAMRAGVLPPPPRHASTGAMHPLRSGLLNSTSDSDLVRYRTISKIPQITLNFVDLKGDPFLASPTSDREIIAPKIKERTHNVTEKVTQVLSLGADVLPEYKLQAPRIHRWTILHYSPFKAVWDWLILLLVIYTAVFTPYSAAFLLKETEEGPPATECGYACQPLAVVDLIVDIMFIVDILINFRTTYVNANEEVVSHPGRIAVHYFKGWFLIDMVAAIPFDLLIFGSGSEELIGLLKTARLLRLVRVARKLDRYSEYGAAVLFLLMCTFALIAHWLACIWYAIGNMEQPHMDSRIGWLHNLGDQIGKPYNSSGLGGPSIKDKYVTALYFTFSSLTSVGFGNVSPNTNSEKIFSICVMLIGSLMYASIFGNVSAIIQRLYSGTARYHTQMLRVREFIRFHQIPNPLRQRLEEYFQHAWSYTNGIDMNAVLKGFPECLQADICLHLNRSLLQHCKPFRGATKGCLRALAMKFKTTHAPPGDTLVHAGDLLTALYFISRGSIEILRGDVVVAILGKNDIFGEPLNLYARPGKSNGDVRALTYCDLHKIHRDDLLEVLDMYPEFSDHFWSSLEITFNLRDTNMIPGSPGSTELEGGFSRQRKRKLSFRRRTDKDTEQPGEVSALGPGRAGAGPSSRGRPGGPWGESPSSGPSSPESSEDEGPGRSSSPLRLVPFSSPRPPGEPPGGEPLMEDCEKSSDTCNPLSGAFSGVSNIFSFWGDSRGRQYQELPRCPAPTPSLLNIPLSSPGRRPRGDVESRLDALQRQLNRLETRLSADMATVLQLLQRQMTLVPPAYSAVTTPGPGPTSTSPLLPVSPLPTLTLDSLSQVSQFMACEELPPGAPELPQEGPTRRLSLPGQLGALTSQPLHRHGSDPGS
# The campaign covered roughly 340,000 compounds. About 1,300 (0.38%) were called active. Inconclusive results, whose numbers are uncertain, are shown with a selection of clear calls.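 How the source made its calls: active means maximum activity change below -70%; inconclusive means maximum activity change between -70% and -50%; inactive means maximum activity change above -50%.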
# Biological target: Voltage-gated inwardly rectifying potassium channel KCNH2 (Homo sapiens) (UniProt Q12809)
# Test: qHTS for Inhibitors of KCHN2 3.1: Wildtype qHTS
# Settings: U2OS, BacMam KCNH2, thallium flux FluxOr; at 1.84 µM, stronger effect = lower value
# How it was run: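 U2OS cells transduced with wild-type KCNH2 virus are loaded with FluxOr dye for 45 min, and thallium flux is measured in kinetic reads before and after stimulation buffer. Rate constants are normalized to DMSO controls.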
# On the % scale 0 is the no-effect control and ±100 the full control effect.
row,Structure (SMILES),activity change
1,CCOC(=O)c1ccc(NC(=O)CC2C(=O)N(c3ccc(F)cc3)C(=O)N2CCCOC)cc1 (stereo unspecified),inconclusive: -50.5%
2,CCOC(=O)c1c(NC(=O)c2cc(-c3cccc(O)c3)on2)sc(C(C)=O)c1C,inactive: 0.233%
3,OCCNCc1c(OCc2ccc(Cl)cc2)ccc2ccccc12,active: -128%
4,O=C(NNS(=O)(=O)c1ccc(Br)cc1)c1ccccc1-n1cccc1,inconclusive: -65.1%
5,COC(=O)c1ccc(COc2ccc(/C=C(\C#N)c3nc4ccccc4[nH]3)cc2OC)o1,inactive: 5.44%
6,O=C(N/N=C\c1ccc(COc2ccc([N+](=O)[O-])cc2)o1)c1ccc(Cl)cc1,inconclusive: -58.9%
7,O=C(CNc1cccc(C(F)(F)F)c1)N/N=C/C1CCCCC1,inactive: -3.48%
8,C[C@H](CO)N1C[C@H](C)[C@H](CN(C)S(=O)(=O)c2ccc(F)cc2)OCc2cnnn2CCCC1=O,inactive: -15.4%
9,CCCn1nc(NC(=O)COC)c2cc3cccc(C)c3nc21,inactive: 2.48%
10,Cc1cccc(C(=O)N2CCN(Cc3ccc4c(c3)OCO4)CC2)c1,inactive: 10.2%
11,CC1(C)NC(=O)N(CC(=O)OCC(=O)Nc2cccc(F)c2)C1=O,inconclusive: -50.9%
12,O=C(CN1CCN(C(=O)c2ccccc2)CC1)Nc1ncc(Br)cc1Br,inactive: -19.9%
13,CC(C)CCNC(=O)C1CCN(c2nc3ccccc3o2)CC1,inconclusive: -54.5%
14,CCC(CO)NC(=O)c1ccc(-c2nn(C)c(=O)c3ccccc23)cc1 (stereo unspecified),inconclusive: -69.8%
15,Cc1ccc(-c2csc3nc[nH]c(=S)c23)cc1C,inconclusive: -65.7%
16,CCOCCCN(C)C1CCN(C(=O)c2oc3ccccc3c2NC(=O)Cc2ccc([N+](=O)[O-])cc2)CC1,active: -102%
17,Cc1ccc(NC2=C(Cl)C(=O)OC2OC(=O)c2ccc(C)cc2)cc1 (stereo unspecified),inconclusive: -54%
18,CCn1c(=O)cc(OCC(=O)NCc2ccc(C)o2)c2ccccc21,inactive: -7.08%
19,COc1cccc(C(=O)NNC(=O)C(=O)Nc2cccc3ccccc23)c1,inconclusive: -52.8%
20,Cc1ccc(NC2=C/C(=N\S(=O)(=O)c3cccs3)c3ccccc3C2=O)c(C)c1,inactive: -0.037%
21,CCOc1ccc(C(=O)NC(=S)N2CCN(c3ccc(C(F)(F)F)cc3[N+](=O)[O-])CC2)cc1,inconclusive: -55.3%
22,Clc1ccc(C2=NN(c3ccccc3)C(c3ccco3)C2)cc1 (stereo unspecified),inconclusive: -58.3%

row,Structure (SMILES),activity change
1,Cc1ccc(-n2cccn2)c(CN2CCCC(C(=O)c3ccc4c(c3)OCO4)C2)c1 (stereo unspecified),inconclusive: -61.2%
2,COc1ccccc1NC(=O)CN1CCN(CC(=O)Nc2ccc(Cl)c(C(F)(F)F)c2)CC1,inactive: 13.4%
3,Cc1cc(/C=C2\NC(=S)N(C)C2=O)ccc1N1CCCC1,active: -80.2%
4,Cc1ccc(/C=N/NC(=O)CSc2nc3ccccc3n2C)s1,inactive: 0.318%
5,CCOC(=O)Cn1c(-c2ccc(Cl)nc2)nc2ccccc21,inactive: -21.9%
6,CCOc1ccc(CN2CCC(n3nccc3NC(=O)CCCc3ccccc3)CC2)cc1,active: -132%
7,O=C(/C=C/c1cccc(OCc2ccccc2)c1)c1cccnc1,inactive
8,CCOc1ccc(/C=N/NC(=O)c2nnn(-c3nonc3N)c2CN(C)C2CCCCC2)cc1,active: -102%
9,COc1ccc(S(=O)(=O)N2CCN(C/C=C/c3ccccc3)CC2)cc1NC(C)=O,inconclusive: -60.5%
10,CCc1ccc(CN2CCC(n3nccc3NC(=O)c3ccc4c(c3)OCO4)CC2)cc1,inconclusive: -67%
11,CCCCCc1cc(=O)oc2c(C(CCN3CCCC(C)C3)c3ccc(N(C)C)cc3)c(OC)cc(OC)c12 (stereo unspecified),inconclusive: -57.4%
12,COc1ccc2[nH]c(CN3CCC(n4nccc4NC(=O)C4CC4)CC3)c(C)c2c1,inconclusive: -63.7%
13,CCN(CC)CCNC(=O)c1cccc(NC(=O)C(=O)c2cc(Br)ccc2NC(C)=O)c1,inconclusive: -62.3%
14,CCOc1ccc(OCc2ccc(C(=O)N/N=C(\C)c3ccccn3)cc2)cc1,active: -72.2%
15,CCOC(=O)C1(CCOc2ccccc2)CCN(Cc2cc(OC)ccc2OC)CC1,active: -80.1%
16,Cn1c(SCC(=O)N2CCN(c3ccccc3)CC2)nnc1-c1ccco1,active: -77.1%
17,CCOc1ccc2nc(N(CCN(CC)CC)C(=O)/C=C/c3cccs3)sc2c1,inconclusive: -54.3%
18,O=[N+]([O-])c1cccc(-c2cn(-c3ccccc3)c(=S)[nH]2)c1,inconclusive: -69.4%
19,CCN(CC)S(=O)(=O)c1cccc(C(=O)N[C@H](C(=O)O)C(C)C)c1,active: -170%
20,C=CCN(CC=C)C(=S)NC(=O)c1ccc(C)c(Br)c1,inconclusive: -52.8%
21,Cn1c2c(c3ccccc31)CCN(CCCCN1CCN(c3ccccc3)CC1)C2=O,active: -78%
22,O=C(O)C1C2C=CC(C2)C1C(=O)NCCCN1CCCC1=O (stereo unspecified),active: -128%

row,Structure (SMILES),activity change
1,Cc1cc(/C=C2\SC(=S)N(Cc3ccco3)C2=O)c(C)n1-c1ccccc1,active: -81%
2,Cc1cc(Cl)ccc1OCC(O)CNCCc1ccc(S(N)(=O)=O)cc1 (stereo unspecified),inconclusive: -58.5%
3,COc1cc(/C=N/NC(=O)c2cccnc2)ccc1OCC(=O)N1CCOCC1,inactive: 4.34%
4,CN1CCN(CC(=O)Nc2sc3c(c2C(=O)Nc2ccccc2)CCCC3)CC1,active: -91.6%
5,COc1cc(NC(=O)c2csc(-c3ccncc3)n2)cc(C(=O)Nc2cccc(C(F)(F)F)c2)c1,inconclusive: -56.1%
6,N#Cc1ccccc1Sc1ccccc1C(=O)Nc1ccc(Br)cc1,inactive: -3.48%
7,Cc1ccc(CNC(=O)CS(=O)Cc2nc(-c3ccccc3F)oc2C)cc1 (stereo unspecified),inconclusive: -56.2%
8,CCOc1ccc(CN2CCN(Cc3[nH]c4ccccc4c3C)CC2CCO)cc1 (stereo unspecified),inconclusive: -64%
9,CC1CCCN(CC(O)COc2ccc(-c3ccccc3)cc2)C1 (stereo unspecified),inconclusive: -53.1%
10,CCCCNC(=O)c1c(CSc2ccc(Cl)cc2)noc1C(=O)NCc1ccccc1,inactive: -5%
11,COc1ccccc1NC(=O)CSCc1ccc([N+](=O)[O-])cc1,active: -149%
12,Cc1c(-c2ccccc2)oc2c(C(=O)N3CCN(c4ccc([N+](=O)[O-])cc4)CC3)cccc2c1=O,active: -103%
13,CCCS(=O)(=O)c1c(S(=O)(=O)CCC)c2c(N)cccn2c1C(=O)c1ccc(F)cc1,inactive: 3%
14,COc1ccccc1C(=O)N/N=C(\C)c1ccc(NC(=O)Cc2ccccc2)cc1,inconclusive: -54.8%
15,COc1cccc2c(=O)c3c(cnn3C)n(C)c12,inactive: -2.95%
16,CSc1nsc(/C=C/Nc2cccc(Cl)c2)c1C#N,inconclusive: -53.5%
17,Cn1cncc1C#Cc1ccc2cc(C3(O)CCCCC3)oc(=O)c2c1,inconclusive: -53.1%
18,CSC1=NCCN1S(=O)(=O)c1ccc(NC(C)=O)cc1,inconclusive: -53.7%
19,O=C(CCCn1c(=O)[nH]c2cc(Cl)ccc2c1=O)N1CCN(c2ccc([N+](=O)[O-])cc2)CC1,inconclusive: -64%
20,Cc1ccc(C(=O)COC(=O)c2cc(=O)[nH]c3ccccc23)cc1C,inactive: 1.09%
21,CC1=C(C(=O)N2CCOCC2)C(c2ccccc2F)C2=C(CCCC2=O)N1 (stereo unspecified),inactive: -3.1%
22,O=Cc1cc(Cl)ccc1OCCN1CCC(Cc2ccccc2)CC1,inconclusive: -65.5%

row,Structure (SMILES),activity change
1,OCCCNc1cc(-c2ccnc(Nc3cccc(Cl)c3)n2)ccn1,inactive: -6.28%
2,CC1Cc2ccccc2N1C(=O)c1ccc(F)c(S(=O)(=O)N2CCOCC2)c1 (stereo unspecified),inconclusive: -67.3%
3,CC(C)C(=O)Nc1cccc(C(=O)OCC(=O)c2ccc(Cl)cc2Cl)c1,inactive: 4.45%
4,COc1ccc(N2CCN(CCC(=O)c3ccc4ccccc4c3)CC2)cc1,inconclusive: -55%
5,CCC(C)c1ccc(NC(=O)Nc2cnccn2)cc1 (stereo unspecified),active: -281%
6,CC1CCN(S(=O)(=O)c2ccc(C(=O)NCc3cccnc3)cc2)CC1,active: -263%
7,CCOCCCn1c(SCc2nc3ccccc3s2)nc2ccccc2c1=O,inactive: -2.18%
8,COc1ccc(N(CC(O)CN2CCCCC2)S(=O)(=O)c2ccc(C)cc2)cc1 (stereo unspecified),inconclusive: -60.2%
9,O=C(COC(=O)c1ccc(-n2cnnn2)cc1)c1ccc(Br)cc1,inconclusive: -63%
10,CC(OC(=O)Cc1cccc(C(F)(F)F)c1)C(=O)Nc1ccc(Cl)cn1 (stereo unspecified),inactive: 8.23%
11,COc1ccccc1N1CCN(S(=O)(=O)c2ccc([N+](=O)[O-])cc2)CC1,inactive: 12.7%
12,CC(C)c1ccc(CN2CCC(Oc3ccc(C(=O)N4CCCC4)cc3)CC2)cc1,inconclusive: -53%
13,COc1ccc(C2SCC(=O)N2C)cc1 (stereo unspecified),inconclusive: -50.7%
14,CCCCn1c(=O)c2c(O)cc(=O)oc2c2ccccc21,inconclusive: -64.6%
15,COc1ccc2c(c1)Cc1sc(NC(=O)c3ccccc3)nc1-2,inactive: 4.81%
16,C(#Cc1ccccc1)C[N+]1(CC#Cc2cccc3ccccc23)CCCC1,inactive: -15.4%
17,CCNc1oc(-c2ccc(OC)cc2)nc1S(=O)(=O)c1ccc(Br)cc1,inconclusive: -50.6%
18,CC(C)[C@H](NC(=O)c1c(F)cccc1F)C(=O)OCC(=O)NNC(=O)c1ccccc1,inconclusive: -60.1%
19,Cc1ccc(N2CCN(C(=O)Nc3cccc([N+](=O)[O-])c3)CC2C)cc1 (stereo unspecified),active: -77.4%
20,O=C(NCCN1CCOCC1)/C(=C/c1ccc(F)cc1)NC(=O)c1ccccc1,inconclusive: -66%

# Single entries from the list.
# CC(C)c1ccc(CN2CCC(Oc3ccc(C(=O)N4CCCC4)cc3)CC2)cc1 – activity change: inconclusive: -53%
# COc1ccc2c(c1)Cc1sc(NC(=O)c3ccccc3)nc1-2 – activity change: inactive: 4.81%
# OCCCNc1cc(-c2ccnc(Nc3cccc(Cl)c3)n2)ccn1 – activity change: inactive: -6.28%
# C(#Cc1ccccc1)C[N+]1(CC#Cc2cccc3ccccc23)CCCC1 – activity change: inactive: -15.4%
# COc1ccccc1N1CCN(S(=O)(=O)c2ccc([N+](=O)[O-])cc2)CC1 – activity change: inactive: 12.7%
